Test results from the supplement of paper PMC4635364.
This is one part of the list. Repeats in this data set agree poorly, so a single value says little.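 Human fetal ventral-midbrain neural progenitor line ReNCell VM, differentiated without mitogens. Images stained for doublecortin (early neurons) or tyrosine hydroxylase (dopaminergic neurons) were scored by blinded raters against untreated wells (0 = no change). Repeats and both raters were averaged, and compounds averaging 2 or higher were picked as hits for retesting.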

How the values were obtained:
ReNCell VM [1] = experiment: neuronal differentiation score (DCX+ cell fraction vs untreated, manual image score) (score (-3 to 3)); higher = more neuronal differentiation; conditions: 2 uM, 2 weeks
ReNCell VM [2] = experiment: dopaminergic neuron differentiation score (TH+ cell fraction vs untreated, manual image score) (score (0 to 3)); higher = more TH+ dopaminergic neuron differentiation; conditions: 2 uM, 4 weeks, BDNF 10 ng/ml + GDNF 10 ng/ml

CC1c2ccccc2CN1CC1=NCCN1 (stereo not given)
inactive: neuronal differentiation score (ReNCell VM [1]; library: Tocriscreen) 0 | dopaminergic neuron differentiation score (ReNCell VM [2]; library: Tocriscreen) 0

O=C1NC(=O)c2cc(Nc3ccccc3)c(Nc3ccccc3)cc21
inactive: neuronal differentiation score (ReNCell VM [1]; library: LOPAC) -1 | neuronal differentiation score (ReNCell VM [1]; library: Tocriscreen) 0 | dopaminergic neuron differentiation score (ReNCell VM [2]; library: LOPAC) 0 | dopaminergic neuron differentiation score (ReNCell VM [2]; library: Tocriscreen) 0

CC(C)(CO)Cc1cc(C(C)(C)C)c(O)c(C(C)(C)C)c1
inactive: neuronal differentiation score (ReNCell VM [1]; library: LOPAC) -1 | neuronal differentiation score (ReNCell VM [1]; library: Tocriscreen) 0 | dopaminergic neuron differentiation score (ReNCell VM [2]; library: LOPAC) 0 | dopaminergic neuron differentiation score (ReNCell VM [2]; library: Tocriscreen) 0
